Results are given in words; binding and its absence hold for the method and conditions named. In cells and extracts the contact can be indirect. Binding can be weak; no strength is given.

By UniProt entry, the sequences of proteins in these tests, tags left out. Where a name states a change or a piece, a line headed by the entry shows the natural chain unless it says otherwise.
UniProt P51788: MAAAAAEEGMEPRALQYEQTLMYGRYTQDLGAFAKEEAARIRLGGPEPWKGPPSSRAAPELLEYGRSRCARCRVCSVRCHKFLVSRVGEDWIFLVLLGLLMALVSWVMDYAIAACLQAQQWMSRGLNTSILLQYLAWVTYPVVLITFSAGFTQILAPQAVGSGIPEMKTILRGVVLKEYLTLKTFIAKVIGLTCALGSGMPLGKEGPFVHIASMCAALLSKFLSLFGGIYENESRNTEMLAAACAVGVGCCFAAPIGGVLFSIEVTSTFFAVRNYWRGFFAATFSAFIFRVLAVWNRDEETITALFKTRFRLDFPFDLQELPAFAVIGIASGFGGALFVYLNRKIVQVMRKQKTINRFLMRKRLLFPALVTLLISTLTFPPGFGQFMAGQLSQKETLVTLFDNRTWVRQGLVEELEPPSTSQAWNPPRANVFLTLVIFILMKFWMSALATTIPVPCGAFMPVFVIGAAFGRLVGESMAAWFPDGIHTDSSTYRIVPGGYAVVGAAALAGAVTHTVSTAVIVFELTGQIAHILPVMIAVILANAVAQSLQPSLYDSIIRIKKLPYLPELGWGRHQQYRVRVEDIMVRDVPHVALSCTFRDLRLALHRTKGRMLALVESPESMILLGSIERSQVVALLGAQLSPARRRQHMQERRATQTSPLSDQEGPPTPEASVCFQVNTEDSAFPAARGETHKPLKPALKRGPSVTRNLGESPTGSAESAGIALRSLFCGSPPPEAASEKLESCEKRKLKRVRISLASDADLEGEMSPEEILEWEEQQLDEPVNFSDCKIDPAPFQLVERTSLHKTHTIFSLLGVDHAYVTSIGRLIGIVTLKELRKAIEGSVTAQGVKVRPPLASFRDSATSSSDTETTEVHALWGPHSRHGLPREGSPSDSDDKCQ

Experiment [1] addresses 549-ClC2 (FLAG-tagged ClCN2 truncated to remove the entire c-tail) (UniProt P51788). The experiment can be described thus: co-IP; FLAG-tagged wild-type or truncated ClCN2 immunoprecipitated with 1.5 μg FLAG antibody and protein A/G sepharose beads from transfected polarized CFBE cell lysates, blot for endogenous ENaCγ; normalised to the FLAG pulldown.
The target of experiment [2] is 790-ClC2 (FLAG-tagged ClCN2 truncated to remove the CBS2 domain) (UniProt P51788). Described as above.

B1: epithelial sodium channel gamma subunit (ENaCγ), endogenous (protein, UniProt P51170 1-649)
chain: MAPGEKIKAKIKKNLPVTGPQAPTIKELMRWYCLNTNTHGCRRIVVSRGRLRRLLWIGFTLTAVALILWQCALLVFSFYTVSVSIKVHFRKLDFPAVTICNINPYKYSTVRHLLADLEQETREALKSLYGFPESRKRREAESWNSVSEGKQPRFSHRIPLLIFDQDEKGKARDFFTGRKRKVGGSIIHKASNVMHIESKQVVGFQLCSNDTSDCATYTFSSGINAIQEWYKLHYMNIMAQVPLEKKINMSYSAEELLVTCFFDGVSCDARNFTLFHHPMHGNCYTFNNRENETILSTSMGGSEYGLQVILYINEEEYNPFLVSSTGAKVIIHRQDEYPFVEDVGTEIETAMVTSIGMHLTESFKLSEPYSQCTEDGSDVPIRNIYNAAYSLQICLHSCFQTKMVEKCGCAQYSQPLPPAANYCNYQQHPNWMYCYYQLHRAFVQEELGCQSVCKEACSFKEWTLTTSLAQWPSVVSEKWLLPVLTWDQGRQVNKKLNKTDLAKLLIFYKDLNQRSIMESPANSIEMLLSNFGGQLGLWMSCSVVCVIEIIEVFFIDFFSIIARRQWQKAKEWWAWKQAPPCPEAPRSPQGQDNPALDIDDDLPTFNSALHLPPALGTQVPGTPPPKYNTLRLERAFSNQLTDTQMLDEL
Take B1: the binding entry in experiment [1] and in experiment [2] was “binds” in each case.

(Values after article PMC4387756.)
